The supplement of paper PMC10849652
The other results are listed elsewhere or left out. Residues, ends and D or L forms follow the SMILES beside them. *: point of attachment. Cbz = O=C(OCc1ccccc1)*

Sequences of proteins named here, by UniProt entry; tags and fusion partners are left off. A change or cut given only in a name is not applied to a line headed by its entry.
UniProt Q8N0T1: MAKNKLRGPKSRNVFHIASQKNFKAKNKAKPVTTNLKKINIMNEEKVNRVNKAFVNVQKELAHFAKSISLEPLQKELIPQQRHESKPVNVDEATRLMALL
UniProt Q15286: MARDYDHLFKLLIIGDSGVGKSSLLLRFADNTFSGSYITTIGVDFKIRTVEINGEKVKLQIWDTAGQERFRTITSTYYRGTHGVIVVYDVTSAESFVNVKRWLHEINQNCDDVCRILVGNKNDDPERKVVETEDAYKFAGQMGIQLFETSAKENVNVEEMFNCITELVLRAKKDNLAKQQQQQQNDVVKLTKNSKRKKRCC
UniProt Q9NW64: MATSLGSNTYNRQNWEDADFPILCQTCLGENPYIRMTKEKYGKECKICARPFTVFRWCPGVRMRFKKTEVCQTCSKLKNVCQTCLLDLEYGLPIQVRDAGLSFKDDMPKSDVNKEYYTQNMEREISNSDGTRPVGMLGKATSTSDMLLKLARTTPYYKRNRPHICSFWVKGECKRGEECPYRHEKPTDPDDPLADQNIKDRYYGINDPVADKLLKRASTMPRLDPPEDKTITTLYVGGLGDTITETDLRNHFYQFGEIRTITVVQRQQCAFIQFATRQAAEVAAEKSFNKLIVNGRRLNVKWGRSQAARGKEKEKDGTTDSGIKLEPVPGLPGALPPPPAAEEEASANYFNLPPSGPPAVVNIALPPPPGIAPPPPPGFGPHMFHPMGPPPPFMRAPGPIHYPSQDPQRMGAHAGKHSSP
UniProt Q9NP72: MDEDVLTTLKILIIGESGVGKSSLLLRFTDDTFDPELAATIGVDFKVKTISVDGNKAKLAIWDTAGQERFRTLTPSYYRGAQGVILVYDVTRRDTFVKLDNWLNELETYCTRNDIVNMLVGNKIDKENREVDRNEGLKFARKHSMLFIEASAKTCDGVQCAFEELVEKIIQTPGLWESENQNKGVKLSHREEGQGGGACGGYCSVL
UniProt Q9H2T7: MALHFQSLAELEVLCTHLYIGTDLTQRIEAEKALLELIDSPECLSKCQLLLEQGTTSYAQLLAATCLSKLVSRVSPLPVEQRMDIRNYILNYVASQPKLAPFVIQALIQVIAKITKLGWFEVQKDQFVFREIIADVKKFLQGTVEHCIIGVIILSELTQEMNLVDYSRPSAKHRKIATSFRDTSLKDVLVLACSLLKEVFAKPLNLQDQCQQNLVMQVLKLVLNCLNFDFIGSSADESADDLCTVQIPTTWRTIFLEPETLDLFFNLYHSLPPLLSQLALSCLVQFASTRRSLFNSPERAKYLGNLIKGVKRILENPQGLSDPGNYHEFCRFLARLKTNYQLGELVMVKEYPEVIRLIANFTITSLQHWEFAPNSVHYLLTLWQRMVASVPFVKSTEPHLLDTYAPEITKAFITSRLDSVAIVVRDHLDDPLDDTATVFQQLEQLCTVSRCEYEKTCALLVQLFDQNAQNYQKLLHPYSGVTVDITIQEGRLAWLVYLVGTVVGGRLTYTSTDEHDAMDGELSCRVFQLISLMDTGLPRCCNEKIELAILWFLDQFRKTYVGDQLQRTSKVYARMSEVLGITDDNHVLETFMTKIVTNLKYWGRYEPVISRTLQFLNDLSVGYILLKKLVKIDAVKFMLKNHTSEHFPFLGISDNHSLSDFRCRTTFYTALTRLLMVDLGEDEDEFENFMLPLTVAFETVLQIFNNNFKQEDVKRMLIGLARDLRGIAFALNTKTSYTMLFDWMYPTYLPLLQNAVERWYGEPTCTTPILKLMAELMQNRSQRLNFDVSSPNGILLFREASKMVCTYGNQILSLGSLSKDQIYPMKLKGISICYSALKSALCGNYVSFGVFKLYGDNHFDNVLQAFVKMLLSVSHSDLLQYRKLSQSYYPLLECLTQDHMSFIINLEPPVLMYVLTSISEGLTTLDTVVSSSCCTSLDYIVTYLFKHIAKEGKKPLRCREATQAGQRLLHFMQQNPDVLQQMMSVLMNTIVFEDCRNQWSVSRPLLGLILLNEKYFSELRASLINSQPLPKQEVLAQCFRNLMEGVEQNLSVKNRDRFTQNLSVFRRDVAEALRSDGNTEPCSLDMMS
UniProt Q9H0U4: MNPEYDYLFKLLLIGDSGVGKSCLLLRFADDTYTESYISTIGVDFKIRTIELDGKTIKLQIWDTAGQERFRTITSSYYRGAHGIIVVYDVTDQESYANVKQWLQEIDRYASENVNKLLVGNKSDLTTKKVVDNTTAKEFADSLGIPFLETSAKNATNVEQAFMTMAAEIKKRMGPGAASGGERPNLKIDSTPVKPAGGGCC
UniProt Q969Q5: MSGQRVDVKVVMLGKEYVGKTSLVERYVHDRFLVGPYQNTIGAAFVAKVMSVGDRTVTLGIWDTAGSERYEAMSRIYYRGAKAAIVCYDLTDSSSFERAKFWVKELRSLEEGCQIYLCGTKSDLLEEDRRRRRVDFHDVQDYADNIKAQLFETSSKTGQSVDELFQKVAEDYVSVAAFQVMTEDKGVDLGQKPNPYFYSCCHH
UniProt Q3YEC7: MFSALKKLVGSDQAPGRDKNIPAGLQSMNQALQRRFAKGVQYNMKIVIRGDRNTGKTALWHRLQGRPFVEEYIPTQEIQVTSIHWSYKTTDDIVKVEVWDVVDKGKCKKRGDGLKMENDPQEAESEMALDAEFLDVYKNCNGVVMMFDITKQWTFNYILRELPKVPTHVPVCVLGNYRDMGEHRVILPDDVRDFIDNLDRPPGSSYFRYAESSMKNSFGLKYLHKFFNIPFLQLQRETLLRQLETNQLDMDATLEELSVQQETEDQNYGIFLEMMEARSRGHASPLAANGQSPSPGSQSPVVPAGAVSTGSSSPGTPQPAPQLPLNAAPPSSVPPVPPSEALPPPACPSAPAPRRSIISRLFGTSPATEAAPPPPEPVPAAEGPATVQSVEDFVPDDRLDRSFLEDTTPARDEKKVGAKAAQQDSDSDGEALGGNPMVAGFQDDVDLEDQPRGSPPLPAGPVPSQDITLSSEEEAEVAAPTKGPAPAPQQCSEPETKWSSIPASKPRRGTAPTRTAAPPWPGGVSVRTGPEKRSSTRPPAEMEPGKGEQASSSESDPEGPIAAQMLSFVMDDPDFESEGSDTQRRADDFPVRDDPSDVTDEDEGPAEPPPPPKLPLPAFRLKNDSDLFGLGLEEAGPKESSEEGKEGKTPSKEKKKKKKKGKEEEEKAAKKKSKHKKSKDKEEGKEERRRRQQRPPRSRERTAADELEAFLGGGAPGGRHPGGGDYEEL
UniProt P20338: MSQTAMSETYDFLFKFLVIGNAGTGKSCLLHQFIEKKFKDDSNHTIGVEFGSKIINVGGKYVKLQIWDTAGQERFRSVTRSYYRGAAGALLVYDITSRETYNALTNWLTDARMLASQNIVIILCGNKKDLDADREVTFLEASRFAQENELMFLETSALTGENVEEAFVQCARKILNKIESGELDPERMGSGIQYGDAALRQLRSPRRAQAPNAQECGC
UniProt P52306: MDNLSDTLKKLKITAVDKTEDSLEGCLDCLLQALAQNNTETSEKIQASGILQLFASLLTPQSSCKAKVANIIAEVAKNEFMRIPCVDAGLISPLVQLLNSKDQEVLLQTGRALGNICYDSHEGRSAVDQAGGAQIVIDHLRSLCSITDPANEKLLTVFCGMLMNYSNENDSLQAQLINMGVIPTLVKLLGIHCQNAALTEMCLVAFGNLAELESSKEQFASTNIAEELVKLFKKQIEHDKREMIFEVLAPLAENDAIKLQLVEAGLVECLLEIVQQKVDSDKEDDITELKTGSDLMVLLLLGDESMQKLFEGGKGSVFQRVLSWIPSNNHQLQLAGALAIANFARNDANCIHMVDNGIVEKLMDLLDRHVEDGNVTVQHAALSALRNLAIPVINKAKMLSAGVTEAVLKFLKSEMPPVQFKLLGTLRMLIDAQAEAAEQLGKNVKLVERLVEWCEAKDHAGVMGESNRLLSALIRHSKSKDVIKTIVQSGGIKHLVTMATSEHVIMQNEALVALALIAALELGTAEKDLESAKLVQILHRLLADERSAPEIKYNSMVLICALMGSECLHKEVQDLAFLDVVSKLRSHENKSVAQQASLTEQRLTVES
UniProt Q9P2N5: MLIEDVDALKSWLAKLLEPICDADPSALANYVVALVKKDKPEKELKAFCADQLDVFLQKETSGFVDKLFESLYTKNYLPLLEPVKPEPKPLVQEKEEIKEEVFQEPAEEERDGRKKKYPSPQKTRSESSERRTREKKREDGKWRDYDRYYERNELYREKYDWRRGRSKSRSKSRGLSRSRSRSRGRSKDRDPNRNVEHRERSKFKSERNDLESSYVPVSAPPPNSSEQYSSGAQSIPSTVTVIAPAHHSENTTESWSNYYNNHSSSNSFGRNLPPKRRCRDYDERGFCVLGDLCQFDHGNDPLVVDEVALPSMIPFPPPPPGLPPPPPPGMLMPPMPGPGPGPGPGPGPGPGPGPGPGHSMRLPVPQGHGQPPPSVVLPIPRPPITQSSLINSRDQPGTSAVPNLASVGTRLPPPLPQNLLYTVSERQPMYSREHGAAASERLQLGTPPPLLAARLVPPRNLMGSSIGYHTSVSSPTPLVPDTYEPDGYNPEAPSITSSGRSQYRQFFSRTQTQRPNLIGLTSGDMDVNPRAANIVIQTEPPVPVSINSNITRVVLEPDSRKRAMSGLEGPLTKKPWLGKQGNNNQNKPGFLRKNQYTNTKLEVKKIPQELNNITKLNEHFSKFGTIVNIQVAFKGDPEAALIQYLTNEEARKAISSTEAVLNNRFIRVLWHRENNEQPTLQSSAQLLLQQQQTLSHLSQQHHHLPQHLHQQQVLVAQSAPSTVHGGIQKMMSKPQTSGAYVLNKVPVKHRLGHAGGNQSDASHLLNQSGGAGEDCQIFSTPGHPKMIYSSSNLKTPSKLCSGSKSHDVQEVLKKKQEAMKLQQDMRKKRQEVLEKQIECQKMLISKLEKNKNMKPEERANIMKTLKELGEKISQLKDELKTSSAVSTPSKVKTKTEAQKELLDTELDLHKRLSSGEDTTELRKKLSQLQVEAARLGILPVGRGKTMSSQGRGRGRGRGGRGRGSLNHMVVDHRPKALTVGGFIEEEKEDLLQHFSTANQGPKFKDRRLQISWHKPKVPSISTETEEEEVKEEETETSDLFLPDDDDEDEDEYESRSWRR
UniProt Q06609, whole entry, looked up: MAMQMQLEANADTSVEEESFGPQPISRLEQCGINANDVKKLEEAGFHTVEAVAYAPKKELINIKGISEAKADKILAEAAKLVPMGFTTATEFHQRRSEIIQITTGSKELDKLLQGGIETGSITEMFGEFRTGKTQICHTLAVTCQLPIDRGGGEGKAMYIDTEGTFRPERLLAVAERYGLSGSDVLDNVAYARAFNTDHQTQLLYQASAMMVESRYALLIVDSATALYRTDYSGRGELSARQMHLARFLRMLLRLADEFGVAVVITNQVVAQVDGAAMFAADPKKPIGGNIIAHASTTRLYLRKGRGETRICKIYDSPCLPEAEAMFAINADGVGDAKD
UniProt Q9NX57: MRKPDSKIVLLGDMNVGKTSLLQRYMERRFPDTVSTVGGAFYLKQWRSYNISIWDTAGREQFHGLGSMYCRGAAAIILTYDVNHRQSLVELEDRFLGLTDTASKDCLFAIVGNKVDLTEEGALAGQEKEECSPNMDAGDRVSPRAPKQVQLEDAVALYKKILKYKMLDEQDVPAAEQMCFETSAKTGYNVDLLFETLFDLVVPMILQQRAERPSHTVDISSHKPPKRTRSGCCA
UniProt Q5T160: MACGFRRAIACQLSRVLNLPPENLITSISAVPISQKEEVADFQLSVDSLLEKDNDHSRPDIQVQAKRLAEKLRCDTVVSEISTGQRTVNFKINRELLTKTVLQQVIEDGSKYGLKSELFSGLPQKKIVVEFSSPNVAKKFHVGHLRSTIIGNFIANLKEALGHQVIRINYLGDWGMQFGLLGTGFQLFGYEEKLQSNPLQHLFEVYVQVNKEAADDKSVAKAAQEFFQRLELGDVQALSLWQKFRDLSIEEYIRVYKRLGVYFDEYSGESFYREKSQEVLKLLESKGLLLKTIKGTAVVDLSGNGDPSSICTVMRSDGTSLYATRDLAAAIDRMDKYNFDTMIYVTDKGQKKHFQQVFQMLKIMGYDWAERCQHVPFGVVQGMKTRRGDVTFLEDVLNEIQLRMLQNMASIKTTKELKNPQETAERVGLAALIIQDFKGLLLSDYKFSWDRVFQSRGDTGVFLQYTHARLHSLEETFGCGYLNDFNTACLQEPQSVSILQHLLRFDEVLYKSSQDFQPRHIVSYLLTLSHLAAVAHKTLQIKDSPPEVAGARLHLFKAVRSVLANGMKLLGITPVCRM
UniProt O60671: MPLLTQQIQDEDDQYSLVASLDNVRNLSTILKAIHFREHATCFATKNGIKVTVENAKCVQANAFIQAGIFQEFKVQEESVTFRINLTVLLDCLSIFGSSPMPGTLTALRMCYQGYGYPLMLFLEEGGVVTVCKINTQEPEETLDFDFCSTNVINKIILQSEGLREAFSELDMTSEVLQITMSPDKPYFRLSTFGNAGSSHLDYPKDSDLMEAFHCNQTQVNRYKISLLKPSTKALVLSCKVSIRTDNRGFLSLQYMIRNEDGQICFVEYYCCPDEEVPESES

Key:
Experiment in all cases: log2 fold change, soluble protein after heating vs DMSO (PISA); higher = thermal stabilisation; K562 cells, 10 uM, 30 min; active = over 0.2 and 3.5 SD of the protein, either way, in both replicates (recomputed)
erlotinib = compound: C#Cc1cccc(Nc2ncnc3cc(OCCOC)c(OCCOC)cc23)c1 [erlotinib]
Outline: (§1)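 K562 cells at 2×10^6 cells/mL were exposed to 10 μM compound for 30 min, then aliquots were heated for 3 min across 48°C-58°C, pooled, and extracted in PBS containing 0.5% NP-40 at 4°C. The supernatant after 21,000xg for 90 min was taken as soluble protein and measured by TMTpro 16plex LC-MS/MS with channel sums equalised. Thermal stability is reported relative to control samples, with values from duplicates. Fold changes are given on a log2 scale.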

[1] = compound: C/C(=N\NC(=O)C1=CC(=CC=C1)S(=O)(=O)N2CCOCC2)/C3=C(C=CC(=C3)Cl)O
Outline: as §1

[2] = compound: C1=CC(=C(C=C1Cl)C2=NC3=NC=CN=C3C(=N2)NC4=CC=NC=C4)F
Outline: as §1

[3] = compound: C1=CC(=CC=C1C2=NC3=C(N2)C=C(C=C3)C(=O)N)OC4=CC=C(C=C4)Cl
Outline: as §1

[4] = compound: C1=CC2=C(C=CC(=C2)/C=C\3/C(=O)NC(=NCC4=CC=CS4)S3)N=C1
Outline: as §1

[5] = compound: C1=CC2=NC=CN=C2C=C1/C=C/3\C(=O)NC(=O)S3
Outline: as §1

[6] = compound: C1=CC=C(C=C1)C2=NC(=C(N2)C3=CC=NC=C3)C4=CC(=C(C=C4)Cl)O
Outline: as §1

[7] = compound: C1=CC=C2C(=C1)C3=NNC4=CC=CC(=C43)C2=O
Outline: as §1

[8] = compound: C1CCN(C1)C(=O)NC2=CC=CC(=C2)NC3=NC=C(C(=N3)NCCC4=CN=CN4)Br
Outline: as §1

[9] = compound: C1CN(CCC1(CC2=CC=C(C=C2)Cl)N)C3=NC=NC4=C3C=CN4
Outline: as §1

IRAK-1-4 Inhibitor I = compound: C1COCCN1CCN2C3=CC=CC=C3N=C2NC(=O)C4=CC(=CC=C4)[N+](=O)[O-] [IRAK-1-4 Inhibitor I]
Outline: as §1

ibrutinib = compound: C=CC(=O)N1CCC[C@@H](n2nc(-c3ccc(Oc4ccccc4)cc3)c3c(N)ncnc32)C1 [ibrutinib]
Outline: as §1

[10] = compound: CC(=O)c1cnc2ccc(-c3cc(Cl)c(O)c(Cl)c3)nc2c1N[C@H]1CC[C@H](CN(C)C)CC1
Outline: as §1

ralimetinib = compound: CC(C)(C)Cn1c(N)nc2ccc(-c3[nH]c(C(C)(C)C)nc3-c3ccc(F)cc3)nc21 [ralimetinib]
Outline: as §1

[11] = compound: CC(C)(O)CC(=O)NCCn1ccc2ncnc(Nc3ccc(Oc4cccc(C(F)(F)F)c4)c(Cl)c3)c21
Outline: as §1

[12] = compound: CC(C)C1=C2N=C(C=C(N2N=C1)NCC3=CC=CC=C3)NCCCCCCN
Outline: as §1

[13] = compound: CC(C)C[C@@H](C=O)NC(=O)[C@H](CC(C)C)NC(=O)[C@H](CC(C)C)NC(=O)OCc1ccccc1
Outline: as §1

pinometostat = compound: CC(C)N(C[C@H]1O[C@@H](n2cnc3c(N)ncnc32)[C@H](O)[C@@H]1O)[C@H]1C[C@@H](CCc2nc3cc(C(C)(C)C)ccc3[nH]2)C1 [pinometostat]
Outline: as §1

[14] = compound: CC1=C(C2=C(C=C1)C(=O)C3=CC=CC=C3N2CCCN)C
Outline: as §1

[15] = compound: CC1=C(C(CC(=O)N1)C2=CC=C(C=C2)C(F)(F)F)C(=O)NC3=C(C=C4C(=C3)C=NN4)F
Outline: as §1

Measured: log2 fold change

RBIS (UniProt Q8N0T1)
inactive: erlotinib -0.051 | [1] 0.015 | [2] -0.038 | [3] 0.044 | [4] 0.007 | [5] 0.031 | [6] -0.121 | [7] -0.083 | [8] 0.037 | [9] -0.093 | IRAK-1-4 Inhibitor I -0.038 | ibrutinib 0.019 | [10] -0.109 | ralimetinib -0.021 | [11] 0.083 | [12] -0.001 | pinometostat 0.044
active: [13] 0.281 | [14] -0.478

RAB35 (UniProt Q15286)
inactive: erlotinib 0.019 | [1] -0.002 | [2] 0.036 | [3] 0.008 | [4] -0.019 | [5] 0.043 | [6] -0.011 | [7] -0.034 | [8] 0.002 | [9] 0.057 | IRAK-1-4 Inhibitor I 0.037 | ibrutinib 0.031 | [10] 0.018 | ralimetinib -0.063 | [11] 0.025 | [12] -0.022 | [13] 0.002 | pinometostat 0.008 | [15] 0.005 | [14] 0.024

RBM22 (UniProt Q9NW64)
inactive: erlotinib -0.013 | [1] -0.037 | [2] -0.061 | [3] -0.009 | [4] -0.117 | [5] 0.038 | [6] -0.084 | [7] -0.051 | [8] 0 | [9] 0.121 | IRAK-1-4 Inhibitor I 0.014 | ibrutinib -0.032 | [10] 0.029 | ralimetinib 0.048 | [11] 0.071 | [12] 0.068 | [13] 0.104 | pinometostat 0.015 | [14] 0.124

RAB18 (UniProt Q9NP72)
inactive: erlotinib -0.025 | [1] 0.03 | [2] 0.013 | [3] 0.012 | [4] -0.059 | [5] 0.008 | [6] -0.044 | [7] -0.036 | [8] -0.039 | [9] 0.041 | IRAK-1-4 Inhibitor I 0.013 | ibrutinib 0.016 | [10] -0.002 | ralimetinib -0.07 | [11] 0.046 | [12] 0.058 | [13] -0.002 | pinometostat -0.055 | [15] 0.019 | [14] 0.014

RANBP17 (UniProt Q9H2T7)
inactive: erlotinib -0.071 | [1] 0.091 | [2] 0.122 | [3] 0.039 | [4] -0.176 | [5] -0.065 | [6] 0.079 | [7] 0.282 | [8] -0.008 | [9] -0.116 | IRAK-1-4 Inhibitor I 0.017 | ibrutinib 0.081 | [10] 0.01 | ralimetinib -0.041 | [11] 0.162 | [12] 0.004 | [13] -0.01 | pinometostat 0.018 | [15] -0.015 | [14] -0.153

RAB1B (UniProt Q9H0U4)
inactive: erlotinib 0.048 | [1] -0.063 | [2] 0.038 | [3] -0.033 | [4] 0.066 | [5] 0.083 | [6] 0.07 | [7] -0.046 | [8] 0.03 | [9] 0.093 | IRAK-1-4 Inhibitor I 0.019 | ibrutinib -0.022 | [10] -0.053 | ralimetinib 0 | [11] 0.023 | [12] 0.028 | [13] -0.037 | pinometostat -0.06 | [15] -0.016 | [14] 0.002

RAB24 (UniProt Q969Q5)
inactive: erlotinib -0.023 | [1] 0.056 | [2] 0.087 | [3] -0.034 | [4] -0.01 | [5] 0.035 | [6] -0.051 | [7] 0.033 | [8] 0.019 | [9] 0.018 | IRAK-1-4 Inhibitor I 0.037 | ibrutinib 0.051 | [10] 0.037 | ralimetinib -0.082 | [11] 0.025 | [12] 0.015 | [13] -0.004 | pinometostat -0.026 | [15] 0.004 | [14] -0.032

RBBP6 (UniProt Q7Z6E9)
inactive: erlotinib -0.01 | [1] 0.005 | [2] 0.014 | [3] -0.034 | [4] -0.037 | [5] 0 | [6] 0.025 | [7] -0.005 | [8] -0.067 | [9] 0.003 | IRAK-1-4 Inhibitor I -0.099 | ibrutinib -0.082 | [10] -0.114 | ralimetinib 0.02 | [11] 0.044 | [12] -0.089 | [13] -0.023 | pinometostat -0.078 | [14] -0.022

RABL6 (UniProt Q3YEC7)
inactive: erlotinib 0.049 | [1] -0.021 | [2] -0.022 | [3] -0.014 | [4] 0.006 | [5] -0.064 | [6] -0.015 | [7] -0.006 | [8] -0.022 | [9] 0.01 | IRAK-1-4 Inhibitor I -0.022 | ibrutinib 0.023 | [10] -0.172 | ralimetinib -0.034 | [11] -0.002 | [12] 0.048 | [13] 0.047 | pinometostat 0.018 | [15] 0.006 | [14] 0.081

RAB4A (UniProt P20338)
inactive: erlotinib 0.006 | [1] 0.047 | [2] -0.01 | [3] -0.019 | [4] -0.001 | [5] 0.011 | [6] -0.003 | [7] -0.031 | [8] 0.024 | [9] 0.019 | IRAK-1-4 Inhibitor I 0.015 | ibrutinib 0.04 | [10] -0.046 | ralimetinib -0.017 | [11] -0.004 | [12] 0.061 | [13] -0.01 | pinometostat -0.08 | [15] -0.017 | [14] 0.01

RAP1GDS1 isoform 5 (UniProt P52306)
active: [12] -0.277
inactive: erlotinib 0.019 | [1] -0.012 | [2] -0.021 | [3] -0.013 | [4] 0.027 | [5] 0.106 | [6] -0.016 | [7] -0.038 | [8] -0.023 | [9] -0.077 | IRAK-1-4 Inhibitor I -0.044 | ibrutinib -0.098 | [10] 0.04 | ralimetinib 0.005 | [11] -0.114 | [13] -0.005 | pinometostat 0.067 | [14] 0.008

RBM27 (UniProt Q9P2N5)
active: [10] -0.338 | [12] -0.479
inactive: erlotinib 0.034 | [1] 0.079 | [2] 0.003 | [3] 0.022 | [4] -0.039 | [5] -0.01 | [6] -0.067 | [7] 0.022 | [8] -0.061 | [9] -0.128 | IRAK-1-4 Inhibitor I -0.123 | ibrutinib 0.023 | ralimetinib -0.045 | [11] -0.063 | [13] 0.042 | pinometostat 0.028 | [14] 0.05

RACK1 (UniProt D6RF23)
inactive: erlotinib 0.085 | [1] -0.129 | [2] -0.106 | [3] -0.049 | [4] 0.343 | [5] 0.045 | [6] -0.294 | [7] 0.151 | [8] 0.247 | [9] -0.166 | IRAK-1-4 Inhibitor I -0.148 | ibrutinib -0.139 | [10] -0.17 | ralimetinib -0.2 | [11] -0.065 | [12] -0.115 | [13] 0.128 | pinometostat -0.005 | [14] 0.058

RAD51 (UniProt Q06609)
inactive: erlotinib 0.29 | [1] 0.06 | [2] 0.044 | [3] 0.032 | [4] 0.067 | [5] 0.017 | [6] -0.025 | [7] -0.032 | [8] -0.014 | [9] 0.013 | IRAK-1-4 Inhibitor I 0.017 | ibrutinib 0.013 | [10] -0.061 | ralimetinib -0.074 | [11] -0.059 | [12] -0.016 | [13] 0.048 | pinometostat -0.024 | [14] 0.102

Taken from above (2 entries):
RACK1 (UniProt D6RF23)
inactive: erlotinib 0.085 | [1] -0.129 | [2] -0.106 | [3] -0.049 | [4] 0.343 | [5] 0.045 | [6] -0.294 | [7] 0.151 | [8] 0.247 | [9] -0.166 | IRAK-1-4 Inhibitor I -0.148 | ibrutinib -0.139 | [10] -0.17 | ralimetinib -0.2 | [11] -0.065 | [12] -0.115 | [13] 0.128 | pinometostat -0.005 | [14] 0.058

RAD51 (UniProt Q06609)
inactive: erlotinib 0.29 | [1] 0.06 | [2] 0.044 | [3] 0.032 | [4] 0.067 | [5] 0.017 | [6] -0.025 | [7] -0.032 | [8] -0.014 | [9] 0.013 | IRAK-1-4 Inhibitor I 0.017 | ibrutinib 0.013 | [10] -0.061 | ralimetinib -0.074 | [11] -0.059 | [12] -0.016 | [13] 0.048 | pinometostat -0.024 | [14] 0.102

Following part:

RAB20 (UniProt Q9NX57)
inactive: erlotinib -0.002 | [1] 0.051 | [2] -0.012 | [3] -0.012 | [4] -0.057 | [5] 0.055 | [6] -0.005 | [7] -0.036 | [8] -0.018 | [9] 0.052 | IRAK-1-4 Inhibitor I 0.001 | ibrutinib 0.002 | [10] -0.012 | ralimetinib -0.042 | [11] 0 | [12] 0.112 | [13] -0.011 | pinometostat -0.004 | [15] 0.004 | [14] 0.04

RARS2 (UniProt Q5T160)
inactive: erlotinib 0.009 | [1] 0.057 | [2] 0.063 | [3] 0.029 | [4] 0.015 | [5] 0.014 | [6] 0.056 | [7] 0 | [8] 0.022 | [9] 0.038 | IRAK-1-4 Inhibitor I 0.053 | ibrutinib 0.003 | [10] -0.012 | ralimetinib -0.039 | [11] -0.081 | [12] -0.214 | [13] -0.061 | pinometostat -0.032 | [14] -0.007

RAC1 (UniProt P63000)
inactive: erlotinib -0.066 | [1] -0.062 | [2] -0.003 | [3] 0.053 | [4] -0.194 | [5] 0.015 | [6] 0.048 | [7] -0.05 | [8] 0.017 | [9] 0.005 | IRAK-1-4 Inhibitor I -0.053 | ibrutinib 0.036 | [10] 0.038 | ralimetinib -0.01 | [11] 0.27 | [12] 0.051 | [13] -0.026 | pinometostat -0.127 | [14] -0.002

RAD1 (UniProt O60671)
inactive: erlotinib -0.025 | [1] 0.02 | [2] 0.089 | [3] 0.032 | [4] 0.08 | [5] 0.031 | [6] 0.027 | [7] 0.003 | [8] 0.07 | [9] 0.07 | IRAK-1-4 Inhibitor I 0.014 | ibrutinib 0.003 | [10] -0.007 | ralimetinib -0.048 | [11] 0.024 | [12] 0.016 | [13] -0.056 | pinometostat -0.066 | [15] 0.018 | [14] -0.079
